# The campaign covered roughly 140,000 compounds. About 4,300 (3.1%) were called active. The shares of active, inactive and inconclusive entries below differ from those in the screen.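 Rule for the calls: active = readout at or below -70, meaning at least 70% loss of cells showing the perinucleolar compartment, a nuclear body marking cancer cells; inconclusive = readout between -30 and a set limit; inactive = the rest.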
# Assay: High Content Assay for Compounds that inhibit the Assembly of the Perinucleolar Compartment;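 note: plate controls were DMSO wells for no effect and camptothecin positive control wells for full effect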
# Conditions: PC3M PTB-GFP, PNC prevalence imaging, 16 h; at 10 µM; hits give low values
# Procedure, shortened: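 Read-out is percentage of cells bearing a perinucleolar compartment, from automated 20x imaging of fixed, Hoechst-stained PC3M PTB-GFP cells. Cells were seeded 4 h, then exposed 16 h to compound (23 nl of library stock) in duplicate plates.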
row,Structure (SMILES),"activity change (PNC), negative = inhibition"
1,c1ccc(CCNc2nc3ccccc3n3nnnc23)cc1,inconclusive: -48.6%
2,COc1cc(C(=O)OCc2cc3ccccc3[nH]c2=O)cc(OC)c1OC,active: -100%
3,CCC(=O)N1CCN(c2ccc(Cl)cc2NC(=O)Cc2ccc(Cl)cc2)CC1,active: -82.4%
4,CCNc1nc(NC(C)(C)C)nc(N2CCCC2)n1,inactive: -4.03%
5,COc1ccc(-c2cc(C(F)(F)F)n3ncc(C(=O)O)c3n2)cc1OC,inconclusive: -73.6%
6,C=CCn1c(N)c(C(=O)OCC)sc1=S,inactive: -28.2%
7,O=C(NCc1cccnc1)NC1(C(F)(F)F)Oc2ccc(Cl)cc2O1 (configuration not stated),inconclusive: -45.6%
8,Cn1c(CCCNC(=O)c2cccs2)nc2ccccc21,inconclusive: -47.7%
9,CC1=Nn2c(nnc2-c2ccccc2Cl)SC1,inactive: 20.3%
10,Cc1ccc(S(=O)(=O)NC(C)(C)CSc2nnc(Nc3ccccc3)s2)cc1,inconclusive: -36.6%
11,COC(=O)c1c(NC(=O)c2cnccn2)sc2c1CCC2,inconclusive: -36.1%
12,Cc1ccc(-c2noc(CCC(=O)NCCCN3CCN(c4ccc(F)cc4)CC3)n2)cc1,inconclusive: -31.5%
13,O=C(O)CCCC(=O)N1CCN(c2cccc(Cl)c2)CC1,active: -99.1%
14,COc1cc(NC(=O)Nc2cccc(C(C)=O)c2)cc(OC)c1OC,inconclusive: -47.9%
15,Cc1nnc(NC(=O)CCCN2C(=O)c3ccccc3C2=O)s1,inconclusive: -67%
16,CCOC(=O)c1c(NC(=O)Cc2cccs2)sc(C(=O)NC2CCCC2)c1C,inactive: -19.3%
17,Cc1nc2cc(S(=O)(=O)N3CCC(C(=O)O)CC3)ccc2n1C1CCCC1,inactive: 14.3%
18,Cc1cc(NC(=O)COC(=O)c2ccc(S(=O)(=O)N3CCCc4ccccc43)cc2)no1,inconclusive: -74.7%
19,CC(C)C(=O)Nc1cc(S(=O)(=O)Nc2cccc(Cl)c2)ccc1Cl,inactive: 33.5%
20,COc1ccc(Cl)cc1NC(=O)CSc1nnc(COc2ccccc2)n1C,inconclusive: -76.6%
21,Cc1cccnc1Nc1nc(-c2ccc(O)cc2)cs1,inconclusive: -59.9%
22,CCOC(=O)c1c(NS(C)(=O)=O)sc2c1CCC(C)C2 (configuration not stated),inactive: 2.71%
23,CC(=O)CC1OC(=O)C(Br)=C1NCc1ccccc1 (configuration not stated),inconclusive: -48.3%

# 4 compounds already listed, ordered by molecular weight, ascending.
row,Structure (SMILES),"activity change (PNC), negative = inhibition"
6,C=CCn1c(N)c(C(=O)OCC)sc1=S,inactive: -28.2%
21,Cc1cccnc1Nc1nc(-c2ccc(O)cc2)cs1,inconclusive: -59.9%
19,CC(C)C(=O)Nc1cc(S(=O)(=O)Nc2cccc(Cl)c2)ccc1Cl,inactive: 33.5%
3,CCC(=O)N1CCN(c2ccc(Cl)cc2NC(=O)Cc2ccc(Cl)cc2)CC1,active: -82.4%

# (next part)

row,Structure (SMILES),"activity change (PNC), negative = inhibition"
1,O=C(Nc1ccc(N2CCOCC2)nc1)c1ccc(F)cc1,inconclusive: -35.4%
2,COc1ccc(/C=N/NC(=O)C(C)n2cnc3ccccc3c2=O)cc1 (configuration not stated),active: -119%
3,Cc1ccc2c(c1C)NC(C(=O)O)C1CC=CC21 (configuration not stated),inconclusive: -43.1%
4,O=C(CSCc1nc2ccccc2[nH]1)Nc1ccc2ccccc2c1,inactive: 0.257%
5,CC1CCc2nc(NC(=O)C3CCCO3)sc2C1 (configuration not stated),inconclusive: -45.5%
6,O=C(C1CC1)N1CCc2cc(Br)cc(S(=O)(=O)N3CCCCCC3)c21,inconclusive: -71.3%
7,CC(=O)C1=C(O)C(=O)N(Cc2ccccc2)C1c1cccs1 (configuration not stated),inconclusive: -30.1%
8,Nc1nonc1-c1nc2ccccc2n1CCC(=O)O,inconclusive: -32.7%
9,COc1ccc2nc3oc(C(=O)N4CCN(c5ccccc5F)CC4)cc3cc2c1,inconclusive: -72.6%
10,Cc1ccc(S(=O)(=O)N2CCN(C(=O)CSc3nnc(C)c(=O)[nH]3)CC2)cc1,inconclusive: -51.8%
11,CCOCCCNS(=O)(=O)Cc1ccccc1,inconclusive: -77%
12,O=C(CN1CCN(c2ccccc2)CC1)Nc1ccc2c(c1)CCC2,inactive: -11.2%
13,Cn1nnnc1SCCNCc1ccccc1OCc1ccc(Cl)cc1,inactive: -16%
14,CCOC(=O)/C(=N/Nc1ccccc1)c1csc(Nc2ccccc2)n1,inconclusive: -39%
15,CCCCOc1ccc(/C=C2/Sc3ccccc3C2=O)cc1,inactive: 6.57%
16,Cc1ccc(C(=O)c2c[nH]c(C(=O)NCc3cccnc3)c2)cc1,inactive: 14.4%
17,COc1ccc(-c2csc(N3CCN(C(=O)c4ccco4)CC3)n2)cc1,inactive: -28.4%
18,O=C(Nc1cc(C(=O)N2CCOCC2)cc(C(=O)N2CCOCC2)c1)c1cc(F)c(F)cc1Cl,inconclusive: -51.2%
19,Cc1cc(CC(C)C)n(-c2nc3ccccc3c(=O)n2OCc2ccccc2)n1,inactive: -24%
20,O=C(Cc1cccs1)Nc1ccccn1,inconclusive: -30.9%
21,Nc1nc(NCc2ccco2)nc(N2CCCCCC2)c1[N+](=O)[O-],inactive: -11.1%
22,CC1=Nc2cccc3cccc(c23)N1,inactive: 1.45%
23,CCc1nc2c(sc3nc4c(cc32)COC(C)(C)C4)c(=O)n1Cc1ccco1,inconclusive: -50.8%

row,Structure (SMILES),"activity change (PNC), negative = inhibition"
1,COc1cc(-c2c(C#N)c(N)nc3c2CCCC3)ccc1O,inconclusive: -31.2%
2,CC1(C)Cn2c(nnc2-c2cccc(O)c2)S1,inactive: 38.7%
3,O=C(/C=C/c1ccc(F)cc1)NCc1cccs1,inconclusive: -57.4%
4,CC[n+]1c(/C=C2\C=C(C)CC(C)(C)C2)sc2ccccc21,inactive: 3.61%
5,COc1cccc(Oc2nc3ncn(Cc4ccccc4)c3c(=O)n2C)c1,inconclusive: -61.1%
6,Cc1ccc(C)c(NC(=O)C2CC(Cl)=CCC2C(=O)O)c1 (configuration not stated),inconclusive: -57.4%
7,CCOCCn1c(SC)nc2c1c(=O)[nH]c(=O)n2C,inactive: 8.56%
8,N#CCCSc1ncnc2c1oc1ccccc12,inactive: 24%
9,CCOC(=O)N1CCN(C(=O)C(NC(=O)c2ccc(CC)cc2)C(C)C)CC1 (configuration not stated),inconclusive: -78.6%
10,COc1ccc(-c2nnc(SCC(=O)Nc3ccc(C)cc3)n2C)cc1,inconclusive: -30%
11,COc1ccccc1N(CC(=O)NC(C)(C)C)C(=O)C1CSC(=O)C1 (configuration not stated),inconclusive: -32.7%
12,CC(=O)c1ccc(OCC(O)CN2C(C)(C)CC(O)CC2(C)C)cc1 (configuration not stated),inconclusive: -43.1%
13,CCCc1cc(C(=O)N2CCN(S(=O)(=O)c3ccc(OC)c(OC)c3)CC2)cs1,inconclusive: -42.3%
14,c1ccc(-c2nnc(SCc3nc4ccccc4[nH]3)n2Cc2ccco2)nc1,inconclusive: -42.5%
15,CCOc1ccc2[nH]c3c(N4CCN(c5ccccn5)CC4)ncnc3c2c1,inconclusive: -45.5%
16,c1ccc(-n2c(SCc3nc(-c4cccs4)no3)nnc2-c2ccco2)cc1,inconclusive: -31.9%
17,Cc1ccc(O)c(N=Cc2cccs2)c1,inconclusive: -49.2%
18,COc1ccc(Cc2ccc(OC)c(N)c2)cc1N,inconclusive: -41.4%
19,CCOc1ccc(N(CC(=O)Nc2ccccc2C(=O)NCc2ccco2)S(C)(=O)=O)cc1,inconclusive: -32.1%
20,CCN1CNC(=S)N(CCc2ccccc2)C1,inconclusive: -43.2%
21,Cc1cc(N2CCOCC2)nc(-c2ccc([N+](=O)[O-])cc2)n1,inactive: 71%
22,COC(=O)Cn1c(C)c(C#N)c2ccccc21,inconclusive: -30.2%
23,O=C(O)c1ccccc1C(=O)Nc1ccccc1,inactive: 8.79%

row,Structure (SMILES),"activity change (PNC), negative = inhibition"
1,O=[N+]([O-])c1cc(Cl)cc(/C=N\Nc2ccccn2)c1O,inactive: 15.4%
2,C=CCSC1=NC(N)=C(C#N)C2(CCCCC2)C1C(N)=O (configuration not stated),inactive: 25.2%
3,O=C(CCN1CCCCC1)c1ccc2c(c1)OCCO2,inconclusive: -39.1%
4,CCn1c(=O)c2ccccc2n2c(SCC(=O)N3CCCc4ccccc43)nnc12,inactive: 19.1%
5,COc1ccc(/C=N\NC(=O)CNC(=O)C(c2ccccc2)c2ccccc2)cc1[N+](=O)[O-],inconclusive: -30.8%
6,CCOC(=O)c1ccc(N2CSC3=C(C#N)C(c4ccc(OC)cc4OC)CC(=O)N3C2)cc1 (configuration not stated),inactive: -17.8%
7,Cc1ccsc1-c1nc(CSCC(=O)N2CCN(c3ccccc3)CC2)c(C)o1,inconclusive: -72.3%
8,CCOC(=O)c1c(C)[nH]c(C)c1C(=O)CSc1nnnn1-c1ccccc1,inactive: 20.3%
9,COc1cc(/C=C/C(=O)c2ccc(O)cc2)ccc1OCC#N,inactive: 9.54%
10,O=C1C2C3C=CC(CNS(=O)(=O)c4ccccc4)(O3)C2C(=O)N1c1ccc(Cl)cc1 (configuration not stated),inactive: -19.2%
11,CCOc1ccccc1N=c1oc2cc(O)ccc2cc1C(=O)NCC1CCCO1 (configuration not stated),inconclusive: -53.4%
12,Cc1cc(C(=O)COC(=O)CNC(=O)c2ccco2)c(C)n1Cc1ccco1,inconclusive: -33.6%
13,CC1=C(C(=O)OCC(C)C)C(c2ccsc2)C2=C(CCCC2=O)N1 (configuration not stated),inconclusive: -37.6%
14,O=C(CSc1nnc(-c2ccco2)n1-c1ccccc1)N1CCOCC1,inconclusive: -58%
15,CC1=NN(c2ccc(Cl)cc2)C(=O)C1C(c1ccccc1O)c1c(C)[nH]n(-c2ccc(Cl)cc2)c1=O (configuration not stated),inactive: -22.5%
16,O=C(CSc1nnc(-c2ccco2)n1Cc1ccccc1)NC(=O)NCc1ccccc1,active: -92.5%
17,COC(=O)c1ccccc1OCC(=O)N1CCN(c2ccc(F)cc2)CC1,inconclusive: -33.9%
18,O=C(Nc1ccc(Cl)c(Cl)c1)c1csc(-c2ccccc2)n1,inconclusive: -68.2%
19,Cc1cc(C)n(-c2nc3sc4c(c3c3nnc(SCC(N)=O)n23)CC(C)(C)OC4)n1,active: -100%
20,COc1ccc(-c2nnc(SCc3cc(C)cc(C)c3)o2)cc1,inconclusive: -44.5%
21,CCOC(=O)c1ccccc1NC(=O)c1cccnc1,inconclusive: -59.6%
22,COCC(O)CSc1c([N+](=O)[O-])nc(C)n1Cc1ccc(OC)c([N+](=O)[O-])c1 (configuration not stated),inconclusive: -37.4%
23,CCN1C(=O)c2cccc3c(S(=O)(=O)Nc4ccc(OC)cc4OC)ccc1c23,inactive: -20.6%

# Two of these compounds, reformatted.
row	Structure (SMILES)	activity change (PNC), negative = inhibition
15	CC1=NN(c2ccc(Cl)cc2)C(=O)C1C(c1ccccc1O)c1c(C)[nH]n(-c2ccc(Cl)cc2)c1=O (configuration not stated)	inactive: -22.5%
17	COC(=O)c1ccccc1OCC(=O)N1CCN(c2ccc(F)cc2)CC1	inconclusive: -33.9%
